Results are given in words; binding and its absence hold for the method and conditions named. Binding seen in cells or lysates may run through a third protein. These calls come from enrichment with a bait or labelling near it, and not all partners need be listed.
B1: Hsp90 co-chaperone (CDC37) (protein, UniProt Q16543 1-378)
chain: MVDYSVWDHIEVSDDEDETHPNIDTASLFRWRHQARVERMEQFQKEKEELDRGCRECKRKVAECQRKLKELEVAEGGKAELERLQAEAQQLRKEERSWEQKLEEMRKKEKSMPWNVDTLSKDGFSKSMVNTKPEKTEEDSEEVREQKHKTFVEKYEKQIKHFGMLRRWDDSQKYLSDNVHLVCEETANYLVIWCIDLEVEEKCALMEQVAHQTIVMQFILELAKSLKVDPRACFRQFFTKIKTADRQYMEGFNDELEAFKERVRGRAKLRIEKAMKEYEEEERKKRLGPGGLDPVEVYESLPEELQKCFDVKDVQMLQDAISKMDPTDAKYHMQRCIDSGLWVPNSKASEAKEGEEAGPGDPLLEAVPKTGDEKDVSV

Protein sequences, listed by entry. Tags and fused reporters are not part of them. Residues count along the entry.
UniProt Q01973, residues 30-937: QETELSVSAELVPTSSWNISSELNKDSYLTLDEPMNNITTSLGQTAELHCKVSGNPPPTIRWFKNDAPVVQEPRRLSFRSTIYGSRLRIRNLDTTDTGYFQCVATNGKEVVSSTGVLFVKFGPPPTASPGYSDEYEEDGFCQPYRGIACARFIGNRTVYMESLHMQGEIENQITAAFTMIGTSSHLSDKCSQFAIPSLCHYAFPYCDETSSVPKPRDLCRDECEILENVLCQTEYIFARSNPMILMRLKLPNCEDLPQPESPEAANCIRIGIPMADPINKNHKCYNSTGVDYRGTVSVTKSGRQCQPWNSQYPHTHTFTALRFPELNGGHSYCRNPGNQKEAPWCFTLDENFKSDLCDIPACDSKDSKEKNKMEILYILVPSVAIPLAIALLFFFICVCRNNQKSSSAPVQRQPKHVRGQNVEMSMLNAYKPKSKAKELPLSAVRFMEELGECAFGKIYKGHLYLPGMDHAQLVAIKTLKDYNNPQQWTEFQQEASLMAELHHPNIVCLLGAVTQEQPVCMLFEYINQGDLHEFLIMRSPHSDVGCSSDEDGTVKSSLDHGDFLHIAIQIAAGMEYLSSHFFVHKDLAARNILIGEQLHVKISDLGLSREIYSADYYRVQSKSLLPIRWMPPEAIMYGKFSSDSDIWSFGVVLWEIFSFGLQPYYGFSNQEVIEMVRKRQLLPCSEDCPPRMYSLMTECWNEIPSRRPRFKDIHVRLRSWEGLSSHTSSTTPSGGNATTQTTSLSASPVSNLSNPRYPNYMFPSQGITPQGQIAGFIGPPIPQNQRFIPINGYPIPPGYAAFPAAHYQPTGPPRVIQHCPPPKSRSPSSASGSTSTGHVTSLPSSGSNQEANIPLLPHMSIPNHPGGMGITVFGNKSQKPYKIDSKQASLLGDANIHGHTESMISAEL
UniProt P15927: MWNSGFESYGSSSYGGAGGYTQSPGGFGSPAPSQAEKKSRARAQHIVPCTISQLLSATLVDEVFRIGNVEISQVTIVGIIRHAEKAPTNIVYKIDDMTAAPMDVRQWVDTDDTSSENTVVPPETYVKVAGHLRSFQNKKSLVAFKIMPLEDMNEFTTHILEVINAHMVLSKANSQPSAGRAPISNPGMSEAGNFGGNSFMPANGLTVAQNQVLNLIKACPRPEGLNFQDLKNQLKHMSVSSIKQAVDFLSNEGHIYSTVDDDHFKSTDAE
UniProt O60884: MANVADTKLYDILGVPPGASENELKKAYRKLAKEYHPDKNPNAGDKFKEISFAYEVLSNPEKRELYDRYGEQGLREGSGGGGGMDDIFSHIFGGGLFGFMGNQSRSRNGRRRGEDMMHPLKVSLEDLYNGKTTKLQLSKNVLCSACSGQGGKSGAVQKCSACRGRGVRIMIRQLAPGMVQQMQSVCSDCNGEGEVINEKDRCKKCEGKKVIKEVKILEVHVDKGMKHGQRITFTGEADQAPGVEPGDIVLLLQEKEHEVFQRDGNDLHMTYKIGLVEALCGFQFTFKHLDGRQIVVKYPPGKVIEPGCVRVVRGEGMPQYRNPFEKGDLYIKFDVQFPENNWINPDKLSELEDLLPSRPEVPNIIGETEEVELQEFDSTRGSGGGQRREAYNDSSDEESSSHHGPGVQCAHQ
UniProt P27694: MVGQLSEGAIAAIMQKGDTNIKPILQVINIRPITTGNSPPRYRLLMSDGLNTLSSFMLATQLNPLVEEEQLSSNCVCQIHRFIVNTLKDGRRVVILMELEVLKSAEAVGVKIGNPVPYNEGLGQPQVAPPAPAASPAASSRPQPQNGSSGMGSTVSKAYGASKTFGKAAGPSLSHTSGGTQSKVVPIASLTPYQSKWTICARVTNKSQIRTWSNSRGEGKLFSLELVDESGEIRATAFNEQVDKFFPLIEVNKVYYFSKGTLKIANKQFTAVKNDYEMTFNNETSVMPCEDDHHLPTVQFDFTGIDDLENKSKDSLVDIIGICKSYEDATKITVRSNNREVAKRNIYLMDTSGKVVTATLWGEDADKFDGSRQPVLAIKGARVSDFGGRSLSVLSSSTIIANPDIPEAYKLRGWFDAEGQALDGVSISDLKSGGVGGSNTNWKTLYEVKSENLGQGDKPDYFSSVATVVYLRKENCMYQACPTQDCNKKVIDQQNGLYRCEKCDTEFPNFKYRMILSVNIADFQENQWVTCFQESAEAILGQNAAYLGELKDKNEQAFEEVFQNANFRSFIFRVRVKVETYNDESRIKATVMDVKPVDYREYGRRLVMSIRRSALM

Tests used:
[1] = biological target: MAC-tagged ROR1 (human) (UniProt Q01973); test: proximity labelling; BioID: MAC-tagged ROR1 as bait, induced with tetracycline and 50 μM biotin in Flp-In T-REx 293 cells; 100 µM pervanadate for 15 min before harvest; cells given water or 1 µM GZD824 for 1 h; two biological replicates; high-confidence interactors after statistical filtering
[2] = biological target: MAC-tagged ROR1 (human) (UniProt Q01973); test: affinity purification with mass spectrometry; MAC-tagged ROR1 as bait, induced with 1 μg/ml tetracycline for 24 h in Flp-In T-REx 293 cells; 100 µM pervanadate for 15 min before harvest; cells given water or 1 µM GZD824 for 1 h; two biological replicates; high-confidence interactors after statistical filtering

Molecule	binding [1]	binding [2]
RPA2 (from UniProt P15927 1-270)	binds	binds
DNA J homolog subfamily A member 2 (from UniProt O60884 1-412)	binds	binds
RPA1 (from UniProt P27694 1-616)	binds	binds
B1	binds	binds

Source: article PMC9064840
